# Test results as given in PubChem BioAssay (NCATS).
# This is one part of the list. Further columns of the screen follow, without active or inactive calls. For some assays here: Most of these compounds were active or inconclusive in the main read-out, so they are no random draw. Potencies come from curve fits of mixed quality, noted in brackets.
# Assays:
# [1] = qHTS Assay for Modulators of Human Peripheral Myelin Protein 22 (PMP22) Expression/Activity (AID 1967); conditions: Cell-based PMP22 reporter, dual-color luciferase ratio
# Outline: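 MSC80 mouse Schwann cells stably carrying Pmp22 promoter–green click beetle luciferase plus EF-alpha–red luciferase control were dosed for 24h at 37 °C. Dual-colour luminescence was filter-overlap corrected; %Activity came from green/red ratio versus untreated cells.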
# [2] = qHTS Validation Assay to Find Inhibitors of Chronic Active B-Cell Receptor Signaling (AID 485345); conditions: ABC-DLBCL cells, chronic BCR signaling reporter
# Outline: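 Read-out: ratio of filter-corrected green (IkappaBalpha fusion) to red (native) luciferase signal in doxycycline-induced TMD8 cells after 4 h at 37C. Titration spanned 46 uM–3 nM; Data were normalised to basal cells and 10 uM MG-132 wells.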
# [3] = Nrf2 qHTS screen for inhibitors: Validation (AID 493153); conditions: A549 ARE-Fluc reporter, 18-24 h; AC50: CellTiter-Fluor fluorescence read, measured here: cytotoxicity CellTiter-Fluor AC50; viability change: measured here: cytotoxicity max response
# Outline: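 A549 ARE_Fluc, 5% FBS OPTI-MEM; cpd titration, 18-24 h, 37°C/5% CO2. Read 1: CellTiter-Fluor (Ex 405/Em 525), cytotox. Read 2: luciferase lum, Nrf2 activity.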
# [4] = S16 Schwann cell PMP22 intronic element beta-lactamase assay (AID 624044); conditions: S16 rat Schwann cells, PMP22 element beta-lactamase FRET, 24 h
# Outline: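 Beta-lactamase reporter under a PMP22 intronic regulatory element in stable S16 rat Schwann cells; 24 h compound exposure. 460 nm blue signal normalized between DMSO (0%) and potassium clavulanate, with 535 nm FRET tracking viability; curves classed by r2 and response.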
# [5] = qHTS Assay for Inhibitors of PDE-IV (AID 607); conditions: HEK293 ACTOne CNG channel cells, membrane potential fluorescence; measured here: parental cell counter-screen
# Outline: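 HEK293 ACTOne cells with CNG channel (1000/well), endogenous PDE4; membrane potential dye, compounds up to 22.9 uM final. Fluorescence Ex 535/Em 590; RO 20-1724 (100 uM final) as reference.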
# [6] = qHTS Validation Assay for Iinhibitors of HIV-1 Budding by Blocking the Interaction of PTAP/TSG101 (AID 485342); conditions: TSG101-PTAP binding, fluorescence polarization, 4-point titration; measured here: FITC channel readout
# Outline: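 Tsg101 binding domain (10 uM final) in pH 7.5 HEPES/NaCl/Tween 20/EDTA/TCEP buffer was mixed with pin-transferred compounds, then FITC-labeled PTAP peptide (50 nM final) was added; after 20 min at r.t., fluorescence polarization was read.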
# [7] = qHTS assay for small molecule antagonists of peroxisome proliferator-activated receptor gamma signaling (AID 588537); conditions: HEK293 PPARg-UAS-bla, beta-lactamase ratio, antagonist mode; measured here: W460 blue channel
# Outline: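 Antagonist-mode β-lactamase reporter screen run as a titration series. HEK293 PPARγ-UAS-bla cells are stimulated with rosiglitazone (50 nM final) for 16 h, then CCF4 is read at 460/530 nm. Data are scaled between DMSO and rosiglitazone and fitted to the Hill equation.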
# [8] = measured here: green reporter channel AC50, mouse Pmp22 promoter in mouse Schwann cells
# [9] = measured here: red reporter channel AC50, EF-alpha promoter control reporter in MSC80 mouse Schwann cells
# [10] = measured here: CBG/CBR ratio read-out
# [11] = measured here: CBR control luciferase (viability counter)
# [12] = measured here: 460 nm blue channel
smiles,measurement,setting,value
Clc1ccc2c(c1)C(N1CCNCC1)=Nc1ccccc1O2,AC50,[1]; [8],"30.1 µM [falling, full curve]"
same,AC50,[1]; [9],"26.9 µM [falling, full curve]"
same,AC50,[2]; [10],"16.4 µM [falling, single point]"
same,AC50,[2]; [11],"29.1 µM [falling, single point]"
same,viability change,[3],-13%
same,AC50,[4]; [12],"5.62 µM [falling, full curve, poor fit]"
CCCNC[C@H](O)COc1ccccc1C(=O)CCc1ccccc1,AC50,[5],"0.0316 µM [rising, full curve, poor fit]"
same,AC50,[1]; [8],"42.6 µM [falling, partial curve]"
same,AC50,[1]; [9],"47.8 µM [falling, partial curve]"
COc1cccc(C(=O)NCCN2CCN(c3ccc(Cl)cc3)CC2)c1,AC50,[1]; [8],"30.1 µM [falling, partial curve]"
same,AC50,[1]; [9],"47.8 µM [falling, partial curve, poor fit]"
CC(C)C1NC(=O)[C@H](CCCCN)NC(=O)[C@@H](Cc2c[nH]c3ccccc23)NC(=O)[C@H](Cc2ccc(O)cc2)NC(=O)[C@H](C)N(C)C(=O)[C@H](Cc2ccccc2)NC1=O (some centres undefined),AC50,[1]; [9],"84.9 µM [falling, single point]"
CN1CCN(C2=Nc3ccccc3Oc3ccc(Cl)cc32)CC1,AC50,[1]; [8],"75.7 µM [falling, partial curve]"
same,AC50,[1]; [9],"84.9 µM [falling, single point]"
CN1CCC2(CCN3CCc4c(oc5ccccc45)C3C2)N(C)C1=O (centres undefined),AC50,[1]; [8],"75.7 µM [falling, single point]"
same,AC50,[1]; [9],"84.9 µM [falling, single point]"
same,viability change,[3],-4%
CN(C)CCOC(=O)COc1ccc(Cl)cc1,AC50,[1]; [9],"95.3 µM [falling, single point]"
CN1CCc2c(cc(O)c(O)c2Cl)C(c2cccc(Cl)c2)C1 (centres undefined),AC50,[1]; [8],"21.3 µM [rising, full curve]"
same,AC50,[1]; [9],"47.8 µM [falling, partial curve, poor fit]"
COc1ccc(CCN(C)CCc2ccc(OC)c(OC)c2)cc1OC,AC50,[1]; [9],"0.757 µM [rising, full curve, poor fit]"
NC(N)=NC(N)=Nc1cccc(Cl)c1,AC50,[1]; [9],"42.6 µM [falling, partial curve, poor fit]"
same,viability change,[3],9.71%
CC[n+]1c(/C=C/C=C2/N(C)c3ccccc3C2(C)C)sc2ccccc21,AC50,[6],"31.6 µM [rising, partial curve]"
same,AC50,[2]; [11],"3.66 µM [rising, single point]"
same,AC50,[3],"11.6 µM [falling, partial curve]"
same,viability change,[3],-89.7%
O=C1NC(=O)C(c2ccccc2)(c2ccccc2)N1,AC50,[1]; [9],"84.9 µM [falling, single point]"
same,AC50,[7],"0.0398 µM [falling, full curve, poor fit]"
O=c1[nH]c2cc(C(F)(F)F)ccc2n1-c1cc(C(F)(F)F)ccc1O,AC50,[1]; [9],"75.7 µM [falling, single point]"
same,AC50,[2]; [10],"18.4 µM [falling, single point]"
O=c1[nH]c(=O)c2nc3ccccc3nc2[nH]1,AC50,[1]; [9],"30.1 µM [rising, single point]"
same,AC50,[6],"50.1 µM [falling, partial curve]"
Nc1ccc(-c2nc3ccc(-c4nc5ccc(N)cc5[nH]4)cc3[nH]2)cc1,AC50,[1]; [9],"75.7 µM [falling, partial curve, poor fit]"
same,AC50,[2]; [11],"29.1 µM [falling, single point]"
CN(C)CCC(c1ccc(Cl)cc1)c1ccccn1 (centres undefined),AC50,[1]; [9],"75.7 µM [falling, partial curve]"
same,AC50,[7],"50.1 µM [rising, single point]"
C=C1C[C@@]23CC[C@H]4[C@@](C)(CCC[C@@]4(C)C(=O)OC4OC(CO)C(O)C(O)C4O)[C@@H]2CC[C@]1(OC1OC(CO)C(O)C(O)C1OC1OC(CO)C(O)C(O)C1O)C3 (some centres undefined),AC50,[2]; [11],"23.1 µM [rising, partial curve]"
c1ccc(CN2CCC3(CCCc4ccccc43)CC2)cc1,AC50,[5],"15.8 µM [rising, partial curve]"
same,AC50,[1]; [8],"67.5 µM [falling, partial curve]"
same,AC50,[1]; [9],"84.9 µM [falling, single point]"
COc1ccc2c(c1)CCC1C2CC[C@@]2(C)C1CC[C@@H]2NCCCCCCN1C(=O)CCC1=O (some centres undefined),AC50,[2]; [11],"29.1 µM [falling, single point]"
COc1cc([C@@H]2c3cc4c(cc3[C@H](O)C3COC(=O)[C@@H]32)OCO4)cc(OC)c1OC (some centres undefined),AC50,[2]; [10],"0.0411 µM [falling, full curve]"
CCCn1cnc2c1c(=O)n(CCCCC(C)=O)c(=O)n2C,AC50,[1]; [9],"84.9 µM [falling, single point]"
same,AC50,[2]; [11],"4.11 µM [rising, full curve, poor fit]"
Fc1cccc(/C=N/N=C/c2cccc(F)c2)c1,AC50,[1]; [9],"0.953 µM [rising, full curve]"
same,AC50,[2]; [11],"1.03 µM [rising, partial curve]"
OC[C@H]1O[C@@H](n2cnc3c(NC4CCCCC4)ncnc32)[C@H](O)[C@@H]1O,AC50,[1]; [9],"75.7 µM [falling, partial curve]"
same,AC50,[2]; [10],"6.51 µM [falling, partial curve]"
same,AC50,[2]; [11],"1.64 µM [rising, partial curve]"
NC(N)=Nc1nc(CSCC/C(N)=N/S(N)(=O)=O)cs1,AC50,[1]; [9],"95.3 µM [falling, single point]"
same,AC50,[4]; [12],"14.1 µM [rising, single point]"
OC1(c2ccc(Cl)cc2)CCN(Cc2c[nH]c3ccccc23)CC1,AC50,[2]; [11],"23.1 µM [rising, partial curve]"
C[C@]12CCC(=O)C=C1CC[C@@H]1[C@@H]2CC[C@@]2(C)[C@H]1CC[C@]2(O)C(=O)CO,AC50,[1]; [9],"95.3 µM [falling, single point]"
same,AC50,[2]; [11],"4.11 µM [rising, full curve]"
same,viability change,[3],8.06%
c1ccc(C(NCc2cccnc2)(c2ccccc2)c2ccccc2)cc1,AC50,[2]; [11],"13 µM [falling, partial curve]"
CN1CCc2cc(NC(=O)Nc3cccnc3)ccc21,AC50,[1]; [9],"33.8 µM [falling, partial curve]"
same,AC50,[2]; [10],"13 µM [falling, partial curve]"
same,AC50,[2]; [11],"32.6 µM [falling, single point]"
Nc1nc2ccc(Cl)cc2c2nc(-c3ccco3)nn12,AC50,[2]; [11],"0.0164 µM [falling, full curve, poor fit]"
O=C1NC(=O)/C(=C/c2ccc3c(c2)OC(F)(F)O3)S1,AC50,[2]; [11],"18.4 µM [falling, single point]"
O=C(O)/C(=C/c1c(C(=O)O)[nH]c2cc(Cl)cc(Cl)c12)c1ccccc1,AC50,[1]; [9],"75.7 µM [falling, partial curve]"
same,AC50,[2]; [10],"16.4 µM [falling, single point]"
same,AC50,[2]; [11],"18.4 µM [falling, single point]"
CNc1ncnc2c1ncn2[C@@H]1O[C@H](CO)[C@@H](O)[C@H]1O,AC50,[2]; [11],"14.6 µM [rising, partial curve]"
O=C(O)C1=CCCN(CCON=C(c2ccccc2)c2ccccc2)C1,AC50,[1]; [9],"3.79 µM [rising, full curve]"
same,AC50,[2]; [11],"18.4 µM [falling, single point]"
CCOC(=O)C(C)Oc1cccc2c(=O)n(CC(=O)Nc3ccc4c(c3)OCCO4)ccc12 (centres undefined),AC50,[2]; [11],"13 µM [rising, partial curve, poor fit]"
S=C(S)OC1CC2CC1C1CCCC21 (centres undefined),AC50,[2]; [11],"23.1 µM [rising, partial curve]"
CC[C@@H](CO)Nc1nc(NCc2ccccc2)c2ncn(C(C)C)c2n1,AC50,[2]; [11],"16.4 µM [falling, partial curve]"
C#CCn1c(=O)c2c(ncn2C)n(C)c1=O,AC50,[2]; [11],"1.3 µM [falling, full curve]"
Nc1ccc2c3c(cccc13)C(=O)NC2=O,AC50,[1]; [9],"37.9 µM [falling, partial curve, poor fit]"
same,AC50,[6],"10 µM [falling, full curve]"
same,AC50,[2]; [11],"0.259 µM [falling, full curve, poor fit]"
same,AC50,[3],"16.4 µM [rising, partial curve, poor fit]"
same,viability change,[3],23.1%
O=C(O)CN(CCOCCOCCN(CC(=O)O)CC(=O)O)CC(=O)O,AC50,[1]; [9],"95.3 µM [falling, single point]"
same,AC50,[4]; [12],"12.6 µM [falling, partial curve]"
same,AC50,[4]; measured here: 530 nm viability channel,"1.58 µM [falling, full curve, poor fit]"
Nc1ncnc2c1ncn2C1CCCO1 (centres undefined),AC50,[2]; [11],"18.4 µM [falling, single point]"
C[C@H]1CC2C3CCC4=CC(=O)C=C[C@]4(C)[C@@]3(Cl)[C@@H](O)C[C@]2(C)[C@@]1(O)C(=O)CO (some centres undefined),AC50,[2]; [11],"0.0164 µM [rising, full curve]"
CC(C)(C)c1ccc(/C=C/C(=O)Nc2ccc3c(c2)OCCO3)cc1,AC50,[2]; [11],"3.66 µM [falling, full curve]"
Nc1ncnc2c1nc(Sc1ccc(Cl)cc1)n2[C@H]1OC2COP(=O)(O)O[C@@H]2C1O (some centres undefined),AC50,[2]; [11],"23.1 µM [rising, partial curve, poor fit]"
Cn1c(=O)c2c(nc(/C=C/c3cccc(Cl)c3)n2C)n(C)c1=O,AC50,[2]; [11],"0.651 µM [falling, full curve]"
O=C1OC(=O)C2C3CCC(O3)C12 (centres undefined),AC50,[2]; [11],"11.6 µM [rising, partial curve, poor fit]"
OCC1O[C@H](O)C(Cl)C(O)C1O (some centres undefined),AC50,[2]; [11],"23.1 µM [falling, single point]"
Nc1nc2c(cnn2CCc2ccccc2)c2nc(-c3ccco3)nn12,AC50,[2]; [11],"0.082 µM [falling, full curve, poor fit]"
CNCC[C@H](Oc1ccc(C(F)(F)F)cc1)c1ccccc1,AC50,[2]; [10],"16.4 µM [falling, single point]"

# Six records picked at random from the list so far:
smiles,measurement,setting,value
Clc1ccc2c(c1)C(N1CCNCC1)=Nc1ccccc1O2,AC50,[1]; [8],"30.1 µM [falling, full curve]"
c1ccc(CN2CCC3(CCCc4ccccc43)CC2)cc1,AC50,[1]; [9],"84.9 µM [falling, single point]"
CN(C)CCOC(=O)COc1ccc(Cl)cc1,AC50,[1]; [9],"95.3 µM [falling, single point]"
c1ccc(CN2CCC3(CCCc4ccccc43)CC2)cc1,AC50,[5],"15.8 µM [rising, partial curve]"
COc1ccc(CCN(C)CCc2ccc(OC)c(OC)c2)cc1OC,AC50,[1]; [9],"0.757 µM [rising, full curve, poor fit]"
CN1CCc2c(cc(O)c(O)c2Cl)C(c2cccc(Cl)c2)C1 (centres undefined),AC50,[1]; [8],"21.3 µM [rising, full curve]"
